The term logD denotes lipophilicity at a set pH, counting ionised and neutral species. By Papp A→B is commonly meant the apparent permeability from the apical to the basolateral side of a cell layer. One may read the Papp B→A as how fast a substance crosses the layer from the basolateral side. One may read the efflux ratio as the permeability from basolateral to apical divided by that in the opposite direction, in the common usage. Usually Papp stands for the rate of passage across a membrane or cell layer, normalised by area and donor concentration. Lower therefore signals slow passage.

Data set [1] can be described thus: Distribution coefficient, log D of the compound. The settings on record: octanol/water.
A short description of data set [2]: Apparent permeability across apical to basolateral side in human Calu3 cells.
Data set [3] is described as follows: Apparent permeability across basolateral to apical side in human Calu3 cells.
Data set [4] can be described thus: Efflux ratio of apparent permeability across basolateral to apical side over apical to basolateral side in human Calu3 cells.
For data set [5] the following is noted: human.
For data set [6] the following is noted: human. This is another data set of the same source.

In turn, `CCn1cc(C(=O)O)c(=O)c2cc(F)c(N3CCN(C)CC3)cc21` [PEFLOXACIN] yielded a logD in data set [1] of 0.25. In addition, in data set [2], the Papp A→B came to 7.1 ×10⁻⁶ cm/s. Also, the Papp B→A in data set [3] was determined as 9.8 ×10⁻⁶ cm/s. Further, in data set [4], the efflux ratio was 1.4. Further, the Papp in data set [5] and in data set [6] was 8.7 ×10⁻⁶ cm/s throughout.

Source of the values: ChEMBL document CHEMBL1212744, “Relative contributions of active mediated transport and passive diffusion of fluoroquinolones with various lipophilicities in a Calu-3 lung epithelial cell model” (Antimicrob Agents Chemother, 2010).
